Measured data: PubChem BioAssay AID1224828 (NIAID, 2016)
The whole screen tested about 17,000 reagents; this is a random part of them. 762 of all reagents (4.5%) count as active. 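Active calls include both raised and lowered p65 entry, mostly lowered; wells with fewer than 50 cells lack a z-score.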 Raw values vary from plate to plate and are shown uncorrected. Unmarked entries are inactive. Reagents against one gene are numbered here.

Test: 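Regulators linking TLR4 signalling to p65 nuclear translocation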 (primary screen)
System: mouse RAW264.7 G9 macrophage reporter cells (GFP-p65, Tnf promoter-mCherry)
Reagents: siRNA pool against mouse genes, 100 nM
Timing: 2 days siRNA transfection, then 40 min LPS before fixation
Treatment: LPS (Salmonella minnesota R595) at 10 ng/ml
Detection: 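Imaged p65 nuclear translocation ratio, normalised to the plate median, converted to robust z-scores and averaged across two replicates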
Scale: p65 translocation robust z-score: higher = more nuclear NF-kappaB p65 after LPS than the plate median; nuclear/cytoplasmic p65 ratio: higher = more nuclear NF-kappaB p65
Call rule: 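Called active when z exceeds 3.3 or falls under -1.56 (median of Tlr4 controls), giving activity score of at least 50; no calls for control wells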
Meaning of the calls: active = hit (p65 shift raised or lowered); inactive = no clear change

{"Gene":"Mtmr10 (myotubularin related protein 10)","reagent no.":1,"p65 translocation robust z-score":-0.77,"nuclear/cytoplasmic p65 ratio, rep 1":1.35,"nuclear/cytoplasmic p65 ratio, rep 2":1.84,"low cell count flag":"enough cells to score"}
{"Gene":"Ube2l3 (ubiquitin-conjugating enzyme E2L 3)","reagent no.":1,"p65 translocation robust z-score":-0.52,"nuclear/cytoplasmic p65 ratio, rep 1":1.39,"nuclear/cytoplasmic p65 ratio, rep 2":1.48,"low cell count flag":"enough cells to score"}
{"Gene":"Fhl2 (four and a half LIM domains 2)","reagent no.":1,"p65 translocation robust z-score":-1.12,"nuclear/cytoplasmic p65 ratio, rep 1":1.46,"nuclear/cytoplasmic p65 ratio, rep 2":1.28,"low cell count flag":"enough cells to score"}
{"Gene":"Poc5 (POC5 centriolar protein)","reagent no.":1,"p65 translocation robust z-score":-1.34,"nuclear/cytoplasmic p65 ratio, rep 1":1.21,"nuclear/cytoplasmic p65 ratio, rep 2":1.25,"low cell count flag":"enough cells to score"}
{"Gene":"Rala (Ras like proto-oncogene A)","reagent no.":1,"p65 translocation robust z-score":0.73,"nuclear/cytoplasmic p65 ratio, rep 1":1.72,"nuclear/cytoplasmic p65 ratio, rep 2":1.53,"low cell count flag":"enough cells to score"}
{"Gene":"Ppp2r5a (protein phosphatase 2, regulatory subunit B', alpha)","reagent no.":1,"p65 translocation robust z-score":-1.24,"nuclear/cytoplasmic p65 ratio, rep 1":1.35,"nuclear/cytoplasmic p65 ratio, rep 2":1.22,"low cell count flag":"enough cells to score"}
{"Gene":"Zfp954 (zinc finger protein 954)","reagent no.":1,"p65 translocation robust z-score":1,"nuclear/cytoplasmic p65 ratio, rep 1":1.51,"nuclear/cytoplasmic p65 ratio, rep 2":1.58,"low cell count flag":"enough cells to score"}
{"Gene":"Cav2 (caveolin 2)","reagent no.":1,"p65 translocation robust z-score":0.2,"nuclear/cytoplasmic p65 ratio, rep 1":1.51,"nuclear/cytoplasmic p65 ratio, rep 2":1.39,"low cell count flag":"enough cells to score"}
{"Gene":"Ccr9 (C-C motif chemokine receptor 9)","reagent no.":1,"p65 translocation robust z-score":-0.9,"nuclear/cytoplasmic p65 ratio, rep 1":1.44,"nuclear/cytoplasmic p65 ratio, rep 2":1.38,"low cell count flag":"enough cells to score"}
{"Gene":"Mettl8 (methyltransferase 8, methylcytidine)","reagent no.":1,"p65 translocation robust z-score":0.31,"nuclear/cytoplasmic p65 ratio, rep 1":1.63,"nuclear/cytoplasmic p65 ratio, rep 2":1.89,"low cell count flag":"enough cells to score"}
{"Gene":"Itih4 (inter alpha-trypsin inhibitor, heavy chain 4)","reagent no.":1,"p65 translocation robust z-score":-0.04,"nuclear/cytoplasmic p65 ratio, rep 1":1.51,"nuclear/cytoplasmic p65 ratio, rep 2":1.46,"low cell count flag":"enough cells to score"}
{"Gene":"Actg1 (actin, gamma, cytoplasmic 1)","reagent no.":1,"p65 translocation robust z-score":-0.54,"nuclear/cytoplasmic p65 ratio, rep 1":1.57,"nuclear/cytoplasmic p65 ratio, rep 2":1.51,"low cell count flag":"enough cells to score"}
{"Gene":"Zc3h6 (zinc finger CCCH type containing 6)","reagent no.":1,"nuclear/cytoplasmic p65 ratio, rep 1":1.11,"nuclear/cytoplasmic p65 ratio, rep 2":1.18,"low cell count flag":"fewer than 50 cells per well; well left out of scoring"}
{"Gene":"Zc3h6 (zinc finger CCCH type containing 6)","reagent no.":2,"nuclear/cytoplasmic p65 ratio, rep 1":1.29,"nuclear/cytoplasmic p65 ratio, rep 2":1.41,"low cell count flag":"fewer than 50 cells per well; well left out of scoring"}
{"Gene":"Setmar (SET domain without mariner transposase fusion)","reagent no.":1,"p65 translocation robust z-score":-0.37,"nuclear/cytoplasmic p65 ratio, rep 1":1.47,"nuclear/cytoplasmic p65 ratio, rep 2":1.53,"low cell count flag":"enough cells to score"}
{"Gene":"Taar8b (trace amine-associated receptor 8B)","reagent no.":1,"p65 translocation robust z-score":1.05,"nuclear/cytoplasmic p65 ratio, rep 1":1.62,"nuclear/cytoplasmic p65 ratio, rep 2":1.77,"low cell count flag":"enough cells to score"}
{"Gene":"Cacna1b (calcium channel, voltage-dependent, N type, alpha 1B subunit)","reagent no.":1,"p65 translocation robust z-score":-0.16,"nuclear/cytoplasmic p65 ratio, rep 1":1.61,"nuclear/cytoplasmic p65 ratio, rep 2":1.57,"low cell count flag":"enough cells to score"}
{"Gene":"Or8a1 (olfactory receptor family 8 subfamily A member 1)","reagent no.":1,"p65 translocation robust z-score":-0.14,"nuclear/cytoplasmic p65 ratio, rep 1":1.68,"nuclear/cytoplasmic p65 ratio, rep 2":1.32,"low cell count flag":"enough cells to score"}
{"Gene":"Sost (sclerostin)","reagent no.":1,"p65 translocation robust z-score":"-2.21 (active)","nuclear/cytoplasmic p65 ratio, rep 1":1.19,"nuclear/cytoplasmic p65 ratio, rep 2":1.26,"low cell count flag":"enough cells to score"}
{"Gene":"Pard3 (par-3 family cell polarity regulator)","reagent no.":1,"p65 translocation robust z-score":-0.05,"nuclear/cytoplasmic p65 ratio, rep 1":1.41,"nuclear/cytoplasmic p65 ratio, rep 2":1.43,"low cell count flag":"enough cells to score"}
{"Gene":"Ikbke (inhibitor of kappaB kinase epsilon)","reagent no.":1,"p65 translocation robust z-score":-1.05,"nuclear/cytoplasmic p65 ratio, rep 1":1.83,"nuclear/cytoplasmic p65 ratio, rep 2":1.24,"low cell count flag":"enough cells to score"}
{"Gene":"Plk3 (polo like kinase 3)","reagent no.":1,"p65 translocation robust z-score":-0.75,"nuclear/cytoplasmic p65 ratio, rep 1":1.65,"nuclear/cytoplasmic p65 ratio, rep 2":1.22,"low cell count flag":"enough cells to score"}
{"Gene":"Kcnj8 (potassium inwardly-rectifying channel, subfamily J, member 8)","reagent no.":1,"p65 translocation robust z-score":0.87,"nuclear/cytoplasmic p65 ratio, rep 1":1.61,"nuclear/cytoplasmic p65 ratio, rep 2":1.48,"low cell count flag":"enough cells to score"}
{"Gene":"Lrrn2 (leucine rich repeat protein 2, neuronal)","reagent no.":1,"p65 translocation robust z-score":0.06,"nuclear/cytoplasmic p65 ratio, rep 1":1.65,"nuclear/cytoplasmic p65 ratio, rep 2":1.62,"low cell count flag":"enough cells to score"}
{"Gene":"Krtap16-3 (keratin associated protein 16-3)","reagent no.":1,"p65 translocation robust z-score":"-1.63 (active)","nuclear/cytoplasmic p65 ratio, rep 1":1.31,"nuclear/cytoplasmic p65 ratio, rep 2":1.4,"low cell count flag":"enough cells to score"}
{"Gene":"Rprm (reprimo, TP53 dependent G2 arrest mediator candidate)","reagent no.":1,"p65 translocation robust z-score":1.03,"nuclear/cytoplasmic p65 ratio, rep 1":1.82,"nuclear/cytoplasmic p65 ratio, rep 2":1.71,"low cell count flag":"enough cells to score"}
{"Gene":"Slfn4 (schlafen 4)","reagent no.":1,"p65 translocation robust z-score":1.71,"nuclear/cytoplasmic p65 ratio, rep 1":1.53,"nuclear/cytoplasmic p65 ratio, rep 2":1.42,"low cell count flag":"enough cells to score"}
